PubChem BioAssay AID1259425, University of Nebraska Medical Center | 2018

Test: 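Compare each knockdown with KSR1 silencing using changes in marker transcripts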 (primary screen)
Cell system: HCT116 human colon cancer cells
Knock-down reagent: siRNA pool against human genes, 50 nM siRNA
Measured: 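mRNA of six signature genes measured together by branched-DNA assay after 50 nM siRNA pool, blank removed, divided by geometric mean of two housekeeping genes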
Direction: BNIP3L mRNA: higher = more BNIP3L transcript after knockdown
This is an unselected part of about 14,000 deposited reagents. Further read-outs or replicates are left out here. Not stated in the record: the time to read-out.

target gene	BNIP3L mRNA, set 1
GIGYF2	0.421
PDK2	0.0842
HDAC4	0.121
PDE11A	0.0575
TMC1	0.0928
FKBP8	0.0528
PACSIN3	0.137
COXFA4L3	0.28
MMP3	0.135
UBL3	0.0867
GPRC5A	0.065
ZFYVE21	0.184
OCEL1	0.104
MGAT4B	0.127
DUSP6	0.0631
PLAG1	0.0985
CDC40	0.0573
HESX1	0.093
CCL13	0.0736
BAIAP3	0.0819
ILKAP	0.0839
PNLIP	0.0748
CTNND2	0.186
CYSLTR1	0.197
COL15A1	0.114
ACTRT3	0.13
NGF	0.0762

11 entries from above, set out differently:
UBL3
- BNIP3L mRNA, set 1: 0.0867

GPRC5A
- BNIP3L mRNA, set 1: 0.065

ZFYVE21
- BNIP3L mRNA, set 1: 0.184

OCEL1
- BNIP3L mRNA, set 1: 0.104

MGAT4B
- BNIP3L mRNA, set 1: 0.127

DUSP6
- BNIP3L mRNA, set 1: 0.0631

PLAG1
- BNIP3L mRNA, set 1: 0.0985

CDC40
- BNIP3L mRNA, set 1: 0.0573

HESX1
- BNIP3L mRNA, set 1: 0.093

CCL13
- BNIP3L mRNA, set 1: 0.0736

BAIAP3
- BNIP3L mRNA, set 1: 0.0819

Further records follow:
target gene	BNIP3L mRNA, set 1
SOX2	0.096
PSMD13	0.09
GATA1	0.0119
TAAR1	0.306
PRDX1	0.0944
ZDHHC14	0.138
PCDHB7	0.117
EGR4	0.112
GMEB1	0.0745
KDM6B	0.246
SKAP1	0.101
WWOX	0.119
ZC3H7A	0.0873
LRRC7	0.21
FES	0.0984
MID1IP1	0.0659
CLEC16A	0.0962
POFUT3	0.138
CDAN1	0.0806
CACNB3	0.346
CDK2	0.19
BCAS3	0.0793
TPM2	0.15
TAS1R3	0.471
PMAIP1	0.0875
EHHADH	0.0826
PITX1	0.112
CTR9	0.148
MRS2	0.0926
ADAMTS14	0.0932
AXIN1	0.0545
MRPL41	0.112
PSPH	0.0686
PPP2R5C	0.0812
MSANTD4	0.0688
FZD10	0.103
